Converted amounts (≈) assume the structure as drawn. The source gives many values for each of these; only a part stands here.
Tested on: Escherichia coli
Assay: minimum inhibitory concentration (MIC)
Procedure: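 Broth microdilution MIC (Sensititre BOPO7F bovine plate, CLSI methods) of 19 antimicrobials against field isolates of P. multocida, M. haemolytica, H. somni (deep nasopharyngeal swabs) and E. coli, Enterococcus spp. (rectal swabs) from weaned dairy heifers. Incubation 16-24 h at 35 C. MIC is the lowest concentration preventing visible growth. Values with <= or > lie at the tested range limits. Trimethoprim-sulfamethoxazole is given as the trimethoprim component of a 1:19 mixture.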

CN[C@@H]1[C@H](O)[C@H](NC)[C@H]2O[C@@]3(O)C(=O)C[C@@H](C)O[C@H]3O[C@@H]2[C@H]1O [Spectinomycin]
Details	minimum inhibitory concentration [µg/mL]
isolate (source animal id): 221	≤ 8
isolate (source animal id): 222	16 (≈ 48.1 µM)
isolate (source animal id): 223	16 (≈ 48.1 µM)
isolate (source animal id): 224	16 (≈ 48.1 µM)
isolate (source animal id): 225	> 64
isolate (source animal id): 226	> 64
isolate (source animal id): 227	16 (≈ 48.1 µM)
isolate (source animal id): 228	> 64
isolate (source animal id): 229	> 64
isolate (source animal id): 230	16 (≈ 48.1 µM)
isolate (source animal id): 231	16 (≈ 48.1 µM)
isolate (source animal id): 232	16 (≈ 48.1 µM)
isolate (source animal id): 233	32 (≈ 96.3 µM)
isolate (source animal id): 234	16 (≈ 48.1 µM)
isolate (source animal id): 235	16 (≈ 48.1 µM)
isolate (source animal id): 236	16 (≈ 48.1 µM)
isolate (source animal id): 237	> 64
isolate (source animal id): 238	> 64
isolate (source animal id): 239	16 (≈ 48.1 µM)
isolate (source animal id): 240	> 64
isolate (source animal id): 241	> 64
isolate (source animal id): 242	32 (≈ 96.3 µM)
isolate (source animal id): 243	16 (≈ 48.1 µM)
isolate (source animal id): 244	16 (≈ 48.1 µM)
isolate (source animal id): 245	> 64
isolate (source animal id): 246	16 (≈ 48.1 µM)
isolate (source animal id): 247	16 (≈ 48.1 µM)
isolate (source animal id): 248	16 (≈ 48.1 µM)
isolate (source animal id): 249	16 (≈ 48.1 µM)
isolate (source animal id): 250	16 (≈ 48.1 µM)
isolate (source animal id): 251	> 64
isolate (source animal id): 252	16 (≈ 48.1 µM)
isolate (source animal id): 253	16 (≈ 48.1 µM)
isolate (source animal id): 254	16 (≈ 48.1 µM)
isolate (source animal id): 255	> 64
isolate (source animal id): 256	> 64
isolate (source animal id): 257	16 (≈ 48.1 µM)
isolate (source animal id): 258	16 (≈ 48.1 µM)
isolate (source animal id): 259	> 64
isolate (source animal id): 260	16 (≈ 48.1 µM)
isolate (source animal id): 261	16 (≈ 48.1 µM)
isolate (source animal id): 262	16 (≈ 48.1 µM)
isolate (source animal id): 263	16 (≈ 48.1 µM)
isolate (source animal id): 264	16 (≈ 48.1 µM)
isolate (source animal id): 265	> 64
isolate (source animal id): 266	32 (≈ 96.3 µM)
isolate (source animal id): 267	> 64
isolate (source animal id): 268	16 (≈ 48.1 µM)
isolate (source animal id): 269	16 (≈ 48.1 µM)
isolate (source animal id): 270	16 (≈ 48.1 µM)
isolate (source animal id): 271	> 64
isolate (source animal id): 272	≤ 8
isolate (source animal id): 273	16 (≈ 48.1 µM)
isolate (source animal id): 274	> 64
isolate (source animal id): 275	> 64
isolate (source animal id): 276	> 64
isolate (source animal id): 277	16 (≈ 48.1 µM)
isolate (source animal id): 278	16 (≈ 48.1 µM)
isolate (source animal id): 279	16 (≈ 48.1 µM)
isolate (source animal id): 280	> 64
isolate (source animal id): 281	16 (≈ 48.1 µM)
isolate (source animal id): 282	16 (≈ 48.1 µM)
isolate (source animal id): 283	16 (≈ 48.1 µM)
isolate (source animal id): 284	> 64
isolate (source animal id): 285	≤ 8
isolate (source animal id): 286	> 64
isolate (source animal id): 287	> 64
isolate (source animal id): 288	16 (≈ 48.1 µM)
isolate (source animal id): 289	16 (≈ 48.1 µM)
isolate (source animal id): 290	16 (≈ 48.1 µM)
isolate (source animal id): 291	> 64
isolate (source animal id): 292	16 (≈ 48.1 µM)
isolate (source animal id): 293	32 (≈ 96.3 µM)
isolate (source animal id): 294	16 (≈ 48.1 µM)
isolate (source animal id): 295	> 64
isolate (source animal id): 296	16 (≈ 48.1 µM)
isolate (source animal id): 297	≤ 8
isolate (source animal id): 298	> 64
isolate (source animal id): 299	16 (≈ 48.1 µM)
isolate (source animal id): 300	16 (≈ 48.1 µM)
isolate (source animal id): 301	16 (≈ 48.1 µM)
isolate (source animal id): 302	16 (≈ 48.1 µM)
isolate (source animal id): 303	16 (≈ 48.1 µM)
isolate (source animal id): 304	16 (≈ 48.1 µM)
isolate (source animal id): 305	32 (≈ 96.3 µM)
isolate (source animal id): 306	16 (≈ 48.1 µM)
isolate (source animal id): 307	16 (≈ 48.1 µM)
isolate (source animal id): 308	16 (≈ 48.1 µM)
isolate (source animal id): 309	16 (≈ 48.1 µM)
isolate (source animal id): 310	16 (≈ 48.1 µM)
isolate (source animal id): 311	> 64
isolate (source animal id): 312	32 (≈ 96.3 µM)
isolate (source animal id): 313	16 (≈ 48.1 µM)
isolate (source animal id): 314	16 (≈ 48.1 µM)
isolate (source animal id): 315	16 (≈ 48.1 µM)
isolate (source animal id): 316	> 64
isolate (source animal id): 317	> 64
isolate (source animal id): 318	16 (≈ 48.1 µM)
isolate (source animal id): 319	16 (≈ 48.1 µM)
isolate (source animal id): 320	≤ 8
isolate (source animal id): 321	> 64
isolate (source animal id): 322	32 (≈ 96.3 µM)
isolate (source animal id): 323	> 64
isolate (source animal id): 324	16 (≈ 48.1 µM)
isolate (source animal id): 325	> 64
isolate (source animal id): 326	16 (≈ 48.1 µM)
isolate (source animal id): 327	16 (≈ 48.1 µM)
isolate (source animal id): 328	≤ 8
isolate (source animal id): 329	16 (≈ 48.1 µM)
isolate (source animal id): 330	32 (≈ 96.3 µM)
isolate (source animal id): 331	> 64
isolate (source animal id): 332	≤ 8
isolate (source animal id): 333	16 (≈ 48.1 µM)
isolate (source animal id): 334	> 64
isolate (source animal id): 335	16 (≈ 48.1 µM)
isolate (source animal id): 336	16 (≈ 48.1 µM)
isolate (source animal id): 337	> 64
isolate (source animal id): 338	> 64
isolate (source animal id): 339	≤ 8
isolate (source animal id): 340	16 (≈ 48.1 µM)
isolate (source animal id): 341	≤ 8

— the supplement of paper PMC8612539
